Experimental data: PubChem BioAssay AID1159578 (Peter MacCallum Cancer Centre, 2015)
Test: 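Genome-wide hunt for genes controlling movement of lymphatic endothelial cells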 (primary screen). System: human lymphatic endothelial cells. Knock-down reagent: siRNA pool against human genes, 40 nM. Timing: 48 h after transfection. Measurement: 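Cells stained with dye and imaged after a scratch; covered wound area and nuclei counted, duplicates averaged, migration set against mock wells and turned into a robust z-score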. Reading the numbers: migration robust z-score: higher = faster migration into the scratch; nuclei per well: higher = more cells in the well. Hit rule: 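Migration changed when robust z exceeds 2 or falls below -2 and mean nuclei number is at least 3300; otherwise not called changed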. Meaning of the calls: active = migration changed; inactive = no migration change, or too few cells.
The deposit covers about 18,000 reagents; this is an unselected part. Of all reagents, about 1,030 (5.7%) got an active call. 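Inactive calls also include pools with fewer than 3300 nuclei, whose migration was not assessed.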 Raw values are not corrected between plates. Not all columns of the deposit are shown.

Depletion of PTPRG came out at: migration robust z-score -0.16; nuclei per well, duplicate mean 5832; inactive.
Knock-down of FOXL2 resulted in: migration robust z-score 0.68; nuclei per well, duplicate mean 6228; inactive.
Depletion of MTHFD1L came out at: migration robust z-score -0.65; nuclei per well, duplicate mean 6390; inactive.
Against COL20A1 the deposit lists migration robust z-score -0.94; nuclei per well, duplicate mean 5674; inactive.
Silencing of RBBP7 came out at: migration robust z-score -0.24; nuclei per well, duplicate mean 5432; inactive.
Depletion of FNDC1 resulted in: migration robust z-score -0.75; nuclei per well, duplicate mean 5362; inactive.
With knock-down of NDUFS8 the results were migration robust z-score 0.32; nuclei per well, duplicate mean 6434; inactive.
PARVA showed migration robust z-score -0.21; nuclei per well, duplicate mean 4710; inactive.
Against ISLR2, the entry reads migration robust z-score -0.27; nuclei per well, duplicate mean 6456; inactive.
FAIM gave migration robust z-score 0.9; nuclei per well, duplicate mean 6994; inactive.
After knock-down of CIB2, the screen gave migration robust z-score -3.84; nuclei per well, duplicate mean 2970; inactive.
After knock-down of CASK the results were migration robust z-score -2.99; nuclei per well, duplicate mean 4586; active.
For MNT, the entry reads migration robust z-score 0.62; nuclei per well, duplicate mean 6690; inactive.
With knock-down of DDIAS, the record shows migration robust z-score -0.26; nuclei per well, duplicate mean 6345; inactive.
Knock-down of PCED1B resulted in: migration robust z-score -0.48; nuclei per well, duplicate mean 4621; inactive.
Silencing of ATP6V1G1 gave: migration robust z-score -1.84; nuclei per well, duplicate mean 5668; inactive.
After knock-down of NACC2 the results were migration robust z-score 1.27; nuclei per well, duplicate mean 5100; inactive.
After knock-down of LIMS1, the record shows migration robust z-score -1.04; nuclei per well, duplicate mean 6795; inactive.
Against DNASE1L1, the values are migration robust z-score 0.73; nuclei per well, duplicate mean 6250; inactive.
With knock-down of S100A13 the results were migration robust z-score -0.05; nuclei per well, duplicate mean 5652; inactive.
After knock-down of ISYNA1, the screen gave migration robust z-score -0.26; nuclei per well, duplicate mean 3735; inactive.

2 neighbouring records from above:
MTHFD1L → migration robust z-score: -0.65; nuclei per well, duplicate mean: 6390; activity call: inactive
COL20A1 → migration robust z-score: -0.94; nuclei per well, duplicate mean: 5674; activity call: inactive
